Results: the supplement of paper PMC7877785
± gives the uncertainty stated by the source. Many of these values have a large error.

Assay: self-splicing fitness, log relative to wild type (ln ratio); higher = more splicing; Tetrahymena group I intron in knt gene, E. coli kanamycin selection, DiMSum; sequences stand for … in CUCUCU…GGAGGGAAAAGUUAUCAGGCAUGCACCUGGUAGCUAGUCUUUAAACCAAUAGAUUGCAUCGGUUUAAAAGGCAAGACCGUCAAAUUGCGGGAAAGGGGUCAACAGCCGUUCAGUACCAAGUCUCAGGGGAAACUUUGAGAUGGCCUUGCAAAGGGUAUGGUAAUAAGCUGACGGACAUGGUCCUAACCACGCAGCCAAGUCCUAAGUCAACAGAUCUUCUGUUGAUAUGGAUGCAGUUCACAGACUAAAUGUCGGUCGGGGAAGAUGUAUUCUUCUCAUAAGAUAUAGUCGGACCUCUCCUUAAUGGGAGCUAGCGGAUGAAGUGAUGCAACACUGGAGCCGCUGGGAACUAAUUUGUAUGCGAAAGUAUAUUGAUUAGUUUUGGAGUACUCGUGGUCG
Outline: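 DiMSum derived fitness as the error-weighted combination of fold changes across replicates, kanamycin versus no kanamycin, normalised to wild type. E. coli BL21(DE3) held the library, which randomised all eight P1ex-region intron nucleotides within the knt kanamycin-resistance gene on pET-22b(+). Six replicate transformations grew overnight at 37°C or 30°C on LB agar with or without 25 μg/mL kanamycin, also containing 100 μg/mL carbenicillin, 50 μM IPTG and 0.2% rhamnose, and pooled colonies were amplicon-sequenced on an Illumina HiSeq 2500.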

| Sequence | self-splicing fitness (ln) (37 °C) | self-splicing fitness (ln) (30 °C) |
| --- | --- | --- |
| UCCUAGCAAUAUUACGCUAG | -3.15 ± 0.62 | – |
| ACACAGCAAUAUUACGCGGC | -2.92 ± 0.16 | -2.29 ± 0.12 |
| ACAGAGCAAUAUUACGGGCC | -2.4 ± 0.54 | – |
| AAUGAGCAAUAUUACGCAUC | -3.22 ± 0.6 | -3.92 ± 0.53 |
| UCGAAGCAAUAUUACGACCC | -1.69 ± 0.81 | – |
| CUGUAGCAAUAUUACGACCC | -2.11 ± 0.5 | – |
| GGAGAGCAAUAUUACGCCAA | -3.67 ± 0.73 | – |
| UAUUAGCAAUAUUACGGGAU | – | -3.8 ± 0.52 |
| UUCGAGCAAUAUUACGGAGU | – | -3.82 ± 0.77 |
| GGGAAGCAAUAUUACGAAAA | -3.41 ± 0.73 | -2.75 ± 0.57 |
| GAAUAGCAAUAUUACGCCGC | – | -3.36 ± 0.6 |
| CAGGAGCAAUAUUACGCUCA | -2.05 ± 0.51 | -4.11 ± 0.73 |
| CUUCAGCAAUAUUACGCGCU | – | -4.41 ± 1 |
| UUCGAGCAAUAUUACGCGAA | -2.62 ± 0.76 | -3.19 ± 1.2 |
| CGGGAGCAAUAUUACGUUGC | -0.44 ± 1.4 | – |
| UAGGAGCAAUAUUACGACCU | -1.36 ± 0.84 | -0.167 ± 1.2 |
| CCAGAGCAAUAUUACGUGUG | -1.54 ± 0.097 | -1.69 ± 0.091 |
| ACCAAGCAAUAUUACGCGCC | 0.198 ± 0.14 | -1.35 ± 0.11 |
| CAGUAGCAAUAUUACGCAAU | -3.23 ± 0.6 | – |
| CCGCAGCAAUAUUACGCCAA | -2.06 ± 0.34 | -3.73 ± 0.38 |
| CAGAAGCAAUAUUACGCUGA | -1.98 ± 0.15 | -2.87 ± 0.18 |
| CAACAGCAAUAUUACGCCGC | -3.56 ± 0.6 | – |
| UCGCAGCAAUAUUACGCGGC | – | -4.69 ± 0.72 |

Record cards, from the list above. Values in the order: self-splicing fitness (ln) (37 °C) | self-splicing fitness (ln) (30 °C)
ACAGAGCAAUAUUACGGGCC is listed as -2.4 ± 0.54 | –
ACCAAGCAAUAUUACGCGCC is listed as 0.198 ± 0.14 | -1.35 ± 0.11
CAGUAGCAAUAUUACGCAAU is listed as -3.23 ± 0.6 | –

4 consecutive entries out of the list so far, quoted:

| Sequence | self-splicing fitness (ln) (37 °C) | self-splicing fitness (ln) (30 °C) |
| --- | --- | --- |
| UAUUAGCAAUAUUACGGGAU | – | -3.8 ± 0.52 |
| UUCGAGCAAUAUUACGGAGU | – | -3.82 ± 0.77 |
| GGGAAGCAAUAUUACGAAAA | -3.41 ± 0.73 | -2.75 ± 0.57 |
| GAAUAGCAAUAUUACGCCGC | – | -3.36 ± 0.6 |

Remaining list, next part

| Sequence | self-splicing fitness (ln) (37 °C) | self-splicing fitness (ln) (30 °C) |
| --- | --- | --- |
| CCUUAGCAAUAUUACGCCCA | -1.71 ± 0.72 | – |
| UCGGAGCAAUAUUACGUCUU | – | -3.48 ± 1.1 |
| GGUAAGCAAUAUUACGCCGG | -1.93 ± 0.47 | -3.09 ± 0.47 |
| GAGCAGCAAUAUUACGCUUC | -3.7 ± 1 | -2.37 ± 0.28 |
| GGGGAGCAAUAUUACGCAAA | -2.39 ± 0.55 | -2.84 ± 0.54 |
| CCGGAGCAAUAUUACGGCCC | – | -1.54 ± 0.82 |
| CAUGAGCAAUAUUACGCCCU | – | -2.76 ± 0.54 |
| GCAUAGCAAUAUUACGUCUU | -0.342 ± 0.11 | -1.46 ± 0.1 |
| UGUAAGCAAUAUUACGUGUG | -0.237 ± 0.095 | -1.04 ± 0.085 |
| UUUCAGCAAUAUUACGAAGC | -1.71 ± 0.65 | – |
| CUUGAGCAAUAUUACGAACC | – | -3.25 ± 0.74 |
| CAGCAGCAAUAUUACGCUGG | -2.43 ± 0.17 | -2.69 ± 0.15 |
| UGGUAGCAAUAUUACGCCGC | -2.39 ± 0.77 | -1.99 ± 0.64 |
| UGGGAGCAAUAUUACGAUAU | -2.96 ± 0.53 | -4.03 ± 0.53 |
| CGAAAGCAAUAUUACGAAAU | -2.96 ± 0.24 | -2.32 ± 0.19 |
| GCAGAGCAAUAUUACGAGUC | -2.39 ± 0.32 | -2.97 ± 0.25 |
| AUGUAGCAAUAUUACGUCGC | – | -3.47 ± 0.6 |
| GGUAAGCAAUAUUACGUACU | -1.79 ± 1.2 | – |
| ACUGAGCAAUAUUACGAGUU | -2.91 ± 0.28 | -2.88 ± 0.17 |
| UUCCAGCAAUAUUACGCAAC | -2.49 ± 0.63 | – |
| UGGAAGCAAUAUUACGCUCC | -3.45 ± 0.6 | -3.96 ± 0.73 |
| UGACAGCAAUAUUACGCUCC | -0.275 ± 0.14 | -1.28 ± 0.13 |
| AUGGAGCAAUAUUACGAACA | -2.63 ± 1.1 | – |

| Sequence | self-splicing fitness (ln) (37 °C) | self-splicing fitness (ln) (30 °C) |
| --- | --- | --- |
| UAUGAGCAAUAUUACGGGCA | -3.35 ± 0.52 | -3.16 ± 0.56 |
| UCCGAGCAAUAUUACGCAUC | -2.64 ± 0.76 | – |
| CGAGAGCAAUAUUACGAUCU | -1.18 ± 0.56 | – |
| CUCCAGCAAUAUUACGUCCC | -2.3 ± 1.1 | – |
| UGACAGCAAUAUUACGGUGC | -1.18 ± 0.53 | – |
| CGCCAGCAAUAUUACGGUUC | -1.54 ± 0.11 | -2.29 ± 0.11 |
| UGCUAGCAAUAUUACGCUGC | -1.56 ± 0.7 | -2.25 ± 1.1 |
| UCUAAGCAAUAUUACGCACC | -2.05 ± 0.58 | – |
| UCCAAGCAAUAUUACGUUCG | -2.2 ± 0.21 | -3.57 ± 0.27 |
| UGUGAGCAAUAUUACGAAUC | -2.9 ± 0.61 | – |
| GGCUAGCAAUAUUACGUGCC | -2.47 ± 0.76 | – |
| GCAUAGCAAUAUUACGCGGA | – | -3.65 ± 0.61 |
| UAUUAGCAAUAUUACGAAGC | -0.778 ± 1.4 | -1.93 ± 1.2 |
| CGUGAGCAAUAUUACGCGAA | -3.33 ± 0.29 | -2.35 ± 0.14 |
| GUCGAGCAAUAUUACGCUUU | -1.92 ± 0.2 | -1.81 ± 0.18 |
| UCCGAGCAAUAUUACGUCUG | -2.97 ± 0.53 | – |
| UACUAGCAAUAUUACGUCCC | -1.48 ± 0.56 | -2.13 ± 0.52 |
| GGGGAGCAAUAUUACGAACU | -1.76 ± 0.27 | -2.75 ± 0.31 |
| CUAUAGCAAUAUUACGUGGC | -1.8 ± 0.28 | -2.86 ± 0.24 |
| CCCGAGCAAUAUUACGCUUG | – | -3.03 ± 0.77 |
| UUUGAGCAAUAUUACGAGUC | -1.66 ± 0.53 | – |
| UCAUAGCAAUAUUACGAAUC | – | -4.93 ± 0.72 |
| GAAAAGCAAUAUUACGCGAC | – | -1.78 ± 0.58 |

| Sequence | self-splicing fitness (ln) (37 °C) | self-splicing fitness (ln) (30 °C) |
| --- | --- | --- |
| UAAGAGCAAUAUUACGAAGC | -2.98 ± 1.1 | – |
| CGUAAGCAAUAUUACGCAGA | -2.67 ± 0.38 | -2.28 ± 0.27 |
| CCGCAGCAAUAUUACGAUAC | -2.19 ± 0.46 | -2.77 ± 0.28 |
| UCAGAGCAAUAUUACGCUCC | -2.39 ± 1.1 | -3.7 ± 1.1 |
| UCUUAGCAAUAUUACGCUGA | – | -3.27 ± 1.1 |
| ACCCAGCAAUAUUACGAACA | -1.35 ± 0.13 | -0.802 ± 0.11 |
| AUCUAGCAAUAUUACGAAAC | – | -2.28 ± 0.65 |
| UUGUAGCAAUAUUACGUAGU | -3.53 ± 0.6 | -5 ± 0.71 |
| UCUUAGCAAUAUUACGGCAC | -1.45 ± 0.6 | -2.28 ± 0.58 |
| CGCGAGCAAUAUUACGUUAC | -1.78 ± 0.33 | -4.07 ± 0.28 |
| UCGGAGCAAUAUUACGUUUG | -0.697 ± 0.6 | -2.71 ± 0.63 |
| CCACAGCAAUAUUACGCUCC | -2.14 ± 0.63 | -3.6 ± 0.54 |
| UCAGAGCAAUAUUACGAGCC | – | -3.64 ± 0.6 |
| UUAUAGCAAUAUUACGUAAC | -0.228 ± 0.76 | -3.19 ± 0.78 |
| UCGUAGCAAUAUUACGUCCC | -0.836 ± 0.56 | – |
| ACAGAGCAAUAUUACGGAUA | -3.19 ± 0.6 | – |
| UUCGAGCAAUAUUACGAAUU | -2.64 ± 1.1 | -4.49 ± 1 |
| GCAAAGCAAUAUUACGAUCA | -0.882 ± 0.11 | -1.4 ± 0.12 |
| CCUGAGCAAUAUUACGAGCC | – | -2.65 ± 1.1 |
| UUAGAGCAAUAUUACGGGGG | -1.79 ± 0.36 | -3.04 ± 0.31 |
| AUGGAGCAAUAUUACGAGUA | -2.93 ± 0.75 | -2.37 ± 0.55 |
| UUGGAGCAAUAUUACGCUAC | -3.64 ± 0.59 | -4.22 ± 0.73 |
| CUAGAGCAAUAUUACGAUAA | -1.3 ± 0.23 | -2.85 ± 0.21 |

| Sequence | self-splicing fitness (ln) (37 °C) | self-splicing fitness (ln) (30 °C) |
| --- | --- | --- |
| UGCUAGCAAUAUUACGCCAC | -0.44 ± 1.4 | -1.26 ± 0.6 |
| CCGAAGCAAUAUUACGUAGC | -2.92 ± 0.53 | – |
| CUUAAGCAAUAUUACGAUCC | -2.7 ± 0.76 | – |
| CCCAAGCAAUAUUACGGUAA | -1.4 ± 0.16 | -2.25 ± 0.14 |
| CGGGAGCAAUAUUACGGGAA | – | -4.01 ± 0.73 |
| GUGUAGCAAUAUUACGCGCC | -0.681 ± 1.4 | -0.455 ± 0.91 |
| UCCUAGCAAUAUUACGAAGC | -2.22 ± 0.55 | -3.82 ± 1 |
| CGAUAGCAAUAUUACGUAUC | -2.31 ± 1.1 | – |
| UGUUAGCAAUAUUACGGGAC | – | -3.34 ± 1.1 |
| ACGCAGCAAUAUUACGUCCC | -0.268 ± 0.48 | 0.0234 ± 0.64 |
| CGUGAGCAAUAUUACGAUGA | -2.04 ± 0.17 | -3.64 ± 0.23 |
| AAACAGCAAUAUUACGUCCU | 0.347 ± 0.094 | -0.281 ± 0.07 |
| CUUAAGCAAUAUUACGUCCC | 0.321 ± 1.2 | -3.27 ± 1.1 |
| AGGGAGCAAUAUUACGACAC | – | -2.12 ± 0.57 |
| UGUGAGCAAUAUUACGUGAA | – | -4.7 ± 1 |
| CGGGAGCAAUAUUACGGCGA | -2.46 ± 0.78 | – |
| GUCGAGCAAUAUUACGCAUC | -0.574 ± 0.22 | -2.31 ± 0.26 |
| CCAUAGCAAUAUUACGCCAC | – | -3.23 ± 0.74 |
| AGAGAGCAAUAUUACGUCCG | -1.63 ± 0.33 | – |
| CUUUAGCAAUAUUACGAUCA | -2.16 ± 0.5 | – |
| GACUAGCAAUAUUACGGAAA | -0.989 ± 0.14 | -1.53 ± 0.14 |
| UUUUAGCAAUAUUACGAGCC | -1.35 ± 0.5 | – |
